Values from PubChem BioAssay AID1508588 (Peter MacCallum Cancer Centre, 2020).
The whole screen tested about 18,000 reagents; this is an unselected part. 790 of them (4.4%) count as active. 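Calls rest on a combination of fold-change classes in drug and vehicle arms, not all shown here.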 Unmarked entries are inactive. The numbers tell different reagents against one gene apart.

Test: 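Knock-downs boosting vemurafenib effects on melanoma cell growth or lactate release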 (primary screen)
System: human WM266.4 melanoma cells (BRAF V600 mutant)
Reagent: siRNA pool against human genes, 40 nM
Timing: 96 h from transfection to read-out
Conditions: vemurafenib 300 nM (about IC25), added 48 h after transfection, for 48 h; comparison arm got DMSO vehicle only
Measured: 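Cell gain (DAPI nuclei at end minus before drug, mean of two replicates) and medium lactate by absorbance per cell, both as ratio to non-targeting siRNA, also grouped into fold-change classes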
Reading the numbers: cell gain with vemurafenib: higher = more cell gain than with non-targeting siRNA; lactate per cell with vemurafenib: higher = more lactate made per cell
Rule for the call: 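Enhancement is called by pairing each knock-down's vehicle-arm and drug-arm fold-change classes for viability or glycolysis; which class combinations qualify is not given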
Meaning of the calls: active = enhances vemurafenib effect; inactive = no enhancement seen

cell gain with vemurafenib	lactate per cell with vemurafenib	gene	pool no.
1.1	1.13	GMPPA	1
0.39	1.19	KIAA1586	1
0.41	1.73	UBAC2	1
0.44	0.77	RIPPLY2	1
0.47	1.52	SURF2	1
0.62	1.5	SPSB2	1
0.02	0.95	ZNF426	1
0.53	0.78	RAB22A	1
0.69	0.54	NUP214	1
0.68	0.76	STON1-GTF2A1L	1
0.91	0.81	DCAF5	1
0.69	0.9	MRGPRX1	1
0.84	1.08	ATRNL1	1
0.75	0.94	COL4A2	1
0.38	1.31	MRPL35	1
0.36	0.69	TRO	1
0.84	0.43	ACSL4	1
0.99	0.66	OTOR	1
1.12	0.42	CCDC144BP	1
0.56	1.44	STH	1
0.52	1.6	USH1G	1
0.78	1.03	PCDHGB1	1
0.56	1.02	JOSD2	1
0.09	1.33	BAIAP3	1
0.34	1.1	SHISA3	1
0.13	1.25	GBA1	1
1.04	0.66	CDK8	1
0.82	0.76	C9orf78	1
0.53	0.74	RAB32	1
0.54	0.73	NME2	1
0.41	1.18	FGL2	1
0.61	0.62	ST6GALNAC1	1
1.02	0.97	TMEM178A	1
0.69	0.66	CR2	1
0.8	0.53	ZMIZ1	1
0.76	0.9	ERV3-1	1
0.4 (active)	0.25	H2BC14	1
0.94	0.88	IRF2BP1	1
0.45	0.84	PNMA8A	1
0.7	0.74	MB21D2	1
0.23	0.76	ICMT	1
0.6	1.34	ANGPTL2	1
0.59	1.09	DGAT2L6	1
0.73	1.4	NUAK1	1
0.39	0.62	NELFCD	1
0.93	1.01	UGGT2	1
0.48	0.68	ZCCHC10	1
-0.08	1.67	SMC5	1
0.48	1.17	UFD1	1
0.85	0.57	FDPS	1
0.48	1.61	FBXL6	1
0.68	0.92	RNF187	1
0.88	0.55	AADAC	1
0	2.41	RRM2	1
0.42	0.9	RRM2	2
1.34	0.7	TMEM9	1
1.08	0.56	CHCHD2	1

Records above whose gene name starts with Z or z (3):
cell gain with vemurafenib	lactate per cell with vemurafenib	gene	pool no.
0.02	0.95	ZNF426	1
0.8	0.53	ZMIZ1	1
0.48	0.68	ZCCHC10	1
